The values are deposited in ChEMBL (CHEMBL3988442, “University of Dundee, Small-Polar-MMV Screening Library” (2021)).

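Whole-parasite assay of Trypanosoma brucei over 72 hours; the read-out is not stated. Concentration: 10 µM. Direction is inferred from retests: higher values go with stronger inhibition. Values scatter widely below zero; nearly all retest evidence comes from the higher of the two concentrations used. Size under these conditions: about 2,700 compounds, about 14 of them at 50% or above in at least one test.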

Each number is a percent effect as filed. How 0% and 100% were set is not recorded. Most values in the screen are low, and negative values occur. The compounds are a random part of those screened.

| structure | percent effect |
|---|---|
| `Cc1ncncc1C(=O)NCCn1nc2ccccn2c1=O` | -113.2 |
| `COc1ccc(OCCC(=O)N2CCCC2Cn2cccn2)cc1` (stereo not given) | -71.27 |
| `COC(=O)CC(NC(=O)c1ccc(OC)cc1OC)c1cccs1` (stereo not given) | -18.19 |
| `CN(C)c1ccc(C(=O)N2CCCN(Cc3cscn3)CC2)nn1` | -33.64 |
| `CCOC(=O)c1sc2ccsc2c1CNC(=O)C(C)OC` (stereo not given) | -41.18 |
| `CCCn1[nH]cc/c1=N\C(=O)CN1CCc2c(nc(C3CC3)n2C)C1` | -46.66 |
| `O=C(NCC(=O)N1CCCC(c2ccccc2)CC1)c1ccoc1` (stereo not given) | -32.38 |
| `COCc1nc(C(=O)N2CCCC2c2ccc(OC)cc2)cs1` (stereo not given) | -20.57 |
| `Cc1nn(C)c(N2CCOCC2)c1CN[C@@H]1c2ccccc2C[C@@H]1O` | -4.322 |
| `CS(=O)(=O)c1cccc(C(=O)NCCCN2CCc3ccccc3C2)c1` | -7.578 |
| `Cc1cnn(CC2CCCN2C(=O)c2c(F)cccc2Cl)c1` (stereo not given) | -60.94 |
| `CC(C)c1nc(C2CCCN(C(=O)c3ccc4nncn4c3)C2)no1` (stereo not given) | -31.87 |
| `CC(=O)N(Cc1ncc(C)o1)C1CCN(Cc2cc(C)on2)C1` (stereo not given) | -49.67 |
| `Cc1nc(CN2CCN(C(C)c3nc(C4CC4)no3)CC2)oc1C` (stereo not given) | -6.301 |
| `CCOCCN1CCN(Cc2cccc(C(=O)N(C)C)c2)CC1CC` (stereo not given) | -4.786 |
| `COc1c(CNC2CCc3c(F)cccc32)c(C)nn1C.Cl` (stereo not given) | -43.32 |
| `CCc1nc2n(n1)CC(NCc1cc(OC)c3c(c1)OCO3)CC2` (stereo not given) | -40.09 |
| `CCN1CC(C(=O)NCc2cccnc2-n2cccn2)CC1=O` (stereo not given) | -49.05 |
| `CCn1cc(CN2CCCN(C(=O)c3ccoc3)CC2)cn1` | -28.56 |
| `CCc1nc(CN(C(C)=O)C2CCN(Cc3csc(C)n3)C2)no1` (stereo not given) | -36.69 |
| `CC1CN(Cc2noc(C3CC3)n2)CCN1Cc1noc(C2CC2)n1` (stereo not given) | -14.54 |
| `Cc1ccc(N2CCCC(NCc3ccc(Cl)o3)C2)nn1` (stereo not given) | -59.83 |
| `CCOCC(O)CN1CCN(C(=O)c2ccc3c(c2)COC3)CC1` (stereo not given) | -16.35 |
| `c1ccc(CCN2CCN(c3ccc4nncn4n3)CC2)cc1` | -2.806 |
| `Cc1nc(C(=O)N2CCCC2c2c(C)nn(C)c2C)cs1` (stereo not given) | -22.05 |
| `COc1cccc(COCC(=O)N2CCCC2Cn2cccn2)c1` (stereo not given) | -43.88 |
| `COc1ccc(OC)c(C(=O)N(C)Cc2nnc3ccccn23)c1` | -47.24 |
| `Cc1nc(CC(=O)N2CCCCC2Cn2cccn2)cs1` (stereo not given) | -22.36 |
| `Cc1nccn1C1CCCN(C(=O)Cc2cn3ccccc3n2)C1` (stereo not given) | -22.95 |
| `Cc1ccc(C(=O)NCCSCc2cccs2)cn1` | -92.59 |
| `CC(c1cccc(S(N)(=O)=O)c1)N(C)CCOC(C)(C)C` (stereo not given) | -76.7 |
| `CCN(Cc1ccc(OC)c(F)c1)Cc1nc2c(cnn2C)c(=O)[nH]1` | -46.2 |
| `CCN(Cc1cccc2c1OCO2)C(=O)Nc1ccccn1` | -56.16 |
| `COc1c(CNCc2ccnc(N3CCCCC3)c2)c(C)nn1C` | -30.33 |
| `CS(=O)(=O)N1CCC(NC(=O)COc2cccc(Cl)c2)CC1` | -79.61 |
| `CCc1nnc(CN2CCCCC2Cn2cncn2)o1` (stereo not given) | -65.89 |
| `CS(=O)(=O)NC1CCN(C(=O)NCc2ccccn2)CC1` | -56.16 |
| `Cl.O=C(Nc1cccc(CNCc2ccsc2)c1)C1CC1` | -60.42 |
| `COc1ccccc1C(O)CNC(=O)Nc1ccccn1` (stereo not given) | -3.581 |
| `Cc1csc(C2CCCCN2C(=O)c2cn[nH]c2C)n1` (stereo not given) | -34.33 |
| `CC(C)c1nc(CN2CCCN(c3nccs3)CC2)no1` | -30.51 |
| `Clc1ccc(-c2nnc(CNCCn3cccn3)o2)c(Cl)c1` | -65.91 |
| `Cc1nc(CNC(=O)NCc2cccnc2N(C)C)cs1` | -35.45 |

Some entries from above, unchanged:

For CCCn1[nH]cc/c1=N\C(=O)CN1CCc2c(nc(C3CC3)n2C)C1 the result was -46.66%.
For Cc1nc(CNC(=O)NCc2cccnc2N(C)C)cs1 the result was -35.45%.
For COc1c(CNCc2ccnc(N3CCCCC3)c2)c(C)nn1C the result was -30.33%.